For at least one entry, the source does not settle the construct or the ends of the probe. A negative result means that nothing was seen under these conditions. Tags and fusion partners may be left off the protein sequences shown.
Tested on: T1, GAL4AD-PvMYB4 (Panicum virgatum)
T1 sequence (limits assumed): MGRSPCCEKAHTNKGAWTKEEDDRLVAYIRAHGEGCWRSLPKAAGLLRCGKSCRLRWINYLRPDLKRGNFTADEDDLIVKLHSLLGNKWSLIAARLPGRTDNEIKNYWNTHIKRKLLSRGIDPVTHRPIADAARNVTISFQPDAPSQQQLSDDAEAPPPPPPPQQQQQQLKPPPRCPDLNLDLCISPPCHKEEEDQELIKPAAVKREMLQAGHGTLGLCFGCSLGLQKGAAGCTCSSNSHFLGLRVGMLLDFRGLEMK
Assay: one hybrid
Details: protein in cells, protein details: GAL4 activation domain fusion, yeast YM4721, only the site is given

[1] = yeast lacZ reporter, range over AC-I to AC-III

Sequence: ACCAAAC (double strand) [AC-IV element (3 copies in lacZ reporter)]
- activity on this sequence (no repression in yeast): not active

Sequence: ACCAACC (double strand) [AC-II element (3 copies in lacZ reporter)]
- activity on this sequence [1]: active

Sequence: ACCTAAC (double strand) [AC-III element (3 copies in lacZ reporter)]
- activity on this sequence [1]: active

Sequence: ACCTACC (double strand) [AC-I element (3 copies in lacZ reporter)]
- activity on this sequence [1]: active
